Results from patent US20250188184A1.
Results are given in words; binding and its absence hold for the method and conditions named. Binding calls can cover weak binding; strength is not graded here.

Tests used:
[1] = target: CD3 epsilon on HEK293T cells (membrane protein array) (Homo sapiens (Human)); assay: immunofluorescence FACS on HEK293T cells expressing membrane proteins
[2] = target: CD3 complex on HEK293T cells (membrane protein array); assay: as above

binding [1]: binds
binding [2]: binds
B1: AMX-500-P7 (AC3934) (bispecific antibody)
chain: ASSATPESGPGTSTEPSEGSAPGTSESATPESGPGSGPGTSESATPGTSESATPESGPGSEPATSGSETPGTSESATPESGPGTSTEPSEGSAPGSPAGSPTSTEEGTSESATPESGPGSEPATSGSETPGTSESATPESGPGSPAGSPTSTEEGSPAGSPTSTEEGTSTEPSEGSAPGTSESATPESGPGTSESATPESGPGTSESATPESGPGSEPATSGSETPGSEPATSGSETPGSPAGSPTSTEEGTSTEPSEGSAPGTSTEPSEGSAPGSEPATSGSETPGTSESATPEAGRSASHTPAGLTGPGTSESATPESQVQLVESGGGVVQPGRSLRLSCAASGRTFGIYVWGWVRQAPGKEREFVGAISWSGSNRKVSDSVKGRFTISRDNSKNTLYLQMNSLRAEDTAVYYCAASNKLYGRTWYDFNESDYWGQGTQVTVSSGGGGSGGGSELVVTQEPSLTVSPGGTVTLTCRSSNGAVTSSNYANWVQQKPGQAPRGLIGGTNKRAPGTPARFSGSLLGGKAALTLSGVQPEDEAVYYCALWYPNLWVFGGGTKLTVLSESATPESGPGTSPGATPESGPGTSESATPEVQLVESGGGIVQPGGSLRLSCAASGFTFSTYAMNWVRQAPGKGLEWVGRIRTKRNNYATYYADSVKGRFTISRDDSKNTVYLQMNSLKTEDTAVYYCVRHENFGNSYVSWFAHWGQGTLVTVSSGTATPESGPGEAGRSASHTPAGLTGPATPESGPGTSESATPESGPGSPAGSPTSTEEGTSESATPESGPGSEPATSGSETPGTSESATPESGPGTSTEPSEGSAPGTSTEPSEGSAPGTSTEPSEGSAPGTSTEPSEGSAPGTSTEPSEGSAPGTSTEPSEGSAPGSPAGSPTSTEEGTSTEPSEGSAPGTSESATPESGPGSEPATSGSETPGTSESATPESGPGSEPATSGSETPGTSESATPESGPGTSTEPSEGSAPGTSESATPESGPGSPAGSPTSTEEGSPAGSPTSTEEGSPAGSPTSTEEGTSESATPESGPGTSTEPSEGSAPGTSESATPESGPGSEPATSGSETPGTSESATPESGPGSEPATSGSETPGTSESATPESGPGTSTEPSEGSAPGSPAGSPTSTEEGTSESATPESGPGSEPATSGSETPGTSESATPESGPGSPAGSPTSTEEGSPAGSPTSTEEGTSTEPSEGSAPGTSESATPESGPGTSESATPESGPGTSPSATPESGPGSEPATSGSETPGSEPATSGSETPGSPAGSPTSTEEGTSTEPSEGSAPGTSTEPSEGSAPGSEPATSGSETPGTSESAGEPEA
